# Data as given in PubChem BioAssay AID588391 (Broad Institute, 2011).
# Chains of the proteins cited; added tags and fusions are not shown.
# UniProt P07237, whole entry, looked up: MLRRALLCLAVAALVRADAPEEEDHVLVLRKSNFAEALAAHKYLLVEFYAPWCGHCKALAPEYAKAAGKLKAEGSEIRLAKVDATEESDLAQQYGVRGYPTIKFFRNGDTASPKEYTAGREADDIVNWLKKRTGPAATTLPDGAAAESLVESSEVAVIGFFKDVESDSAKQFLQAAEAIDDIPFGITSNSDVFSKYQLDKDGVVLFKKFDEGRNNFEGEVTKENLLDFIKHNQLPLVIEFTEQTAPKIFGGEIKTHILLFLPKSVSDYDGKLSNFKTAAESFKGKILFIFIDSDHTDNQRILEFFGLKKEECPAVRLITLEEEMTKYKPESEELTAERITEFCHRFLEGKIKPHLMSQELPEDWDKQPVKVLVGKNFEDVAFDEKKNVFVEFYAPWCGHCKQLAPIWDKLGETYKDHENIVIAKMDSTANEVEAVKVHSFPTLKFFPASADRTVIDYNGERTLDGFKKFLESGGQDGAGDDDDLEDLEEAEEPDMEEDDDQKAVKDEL
# Out of some 350,000 compounds screened, about 180 (0.051%) were called active. This list was built around the results that the source calls inconclusive (neither active nor inactive); the mix of calls is not that of the screen.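 Rule for the calls: active = mean inhibition across replicates of 30% or more, whatever share of single replicates reach that level; inconclusive = mean inhibition below 30% while every single replicate reaches 30%; inactive = the rest.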
# Biological target: Protein disulfide-isomerase (Homo sapiens) (UniProt P07237)
# Assay: blockers of PDI-driven insulin aggregation – biochemical, turbidity, single point, plate reader, primary screen (AID 588391);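 note: absorbance from insulin aggregation driven by PDI reduction with DTT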
# Details: A650, 90 min, at 10 µM, stronger effect = higher value
row,Compound,inhibition
1,CCc1ccc(N=C2NC(=O)/C(=C/c3cc(Br)c(OCC(=O)O)c(OC)c3)S2)cc1,inconclusive: 31%
2,CCc1ccc(-c2nc(CSCC(=O)N3CCN(c4ncccn4)CC3)c(C)o2)cc1,inactive: -3.68%
3,Cc1ccc(C2=Nc3ccccc3SC(c3cccc([N+](=O)[O-])c3)C2)cc1 (stereo not drawn),inconclusive: 32.6%
4,Cc1ccc(NC(=O)NC(=O)CN2CCC(C(N)=O)CC2)c(C)c1,inconclusive: 30.8%
5,CCCNC(=O)c1cccc(COc2ccccc2OC)c1,inconclusive: 33.6%
6,CCOC(=O)C1=C(c2ccccc2)N=c2s/c(=C\c3cccc(O)c3)c(=O)n2C1c1cccs1 (stereo not drawn),active: 60.7%
7,COc1cc(C2C(C#N)=C(N)Oc3cc(C)oc(=O)c32)cc2c1OCO2 (stereo not drawn),inactive: -0.772%
8,O=C(/C=C/c1ccc(N2CCCCC2)c([N+](=O)[O-])c1)c1ccc(O)cc1,active: 84.7%
9,O=C1/C(=C\c2ccc(O)cc2)CCC1CNc1ccc(Cl)cc1 (stereo not drawn),inconclusive: 37.5%
10,COc1cccc(CNC(=O)CCC2CCCN(C/C=C/c3ccccc3OC)C2)c1 (stereo not drawn),inactive: -4.13%
11,O=C(N/N=C/c1ccc(N2CCOCC2)cc1)C1CC1,active: 37.9%
12,CCOC(=O)C(C)c1n[nH]c(=O)c2ccccc12 (stereo not drawn),inconclusive: 39.5%
13,Nc1ccc(C(=O)NN2C(=O)[C@H](Cl)C2c2ccc(Cl)cc2)cc1 (stereo partly drawn),active: 56.1%
14,O=C(Nc1nccs1)c1ccc(-c2ccccc2[N+](=O)[O-])o1,inconclusive: 36.8%
15,O=C(Cc1cccc2ccccc12)NN1C(=O)CSC1=S,inactive: -3.08%
16,Cc1cnc(NC2=NCCC2)s1,active: 38.3%
17,COC(=O)c1ccc(OC(=O)CCS(=O)(=O)c2ccc(C)cc2)cc1,inactive: -1.96%
18,COc1cc(C(=O)N2CCN(C/C=C/c3ccccc3)CC2)cc(OC)c1OC,inconclusive: 33.5%
19,Cc1cccc(-n2ncc3c(NC(C)C)ncnc32)c1,inactive: 4.07%
20,CSCCNC(=O)c1cccc(Cl)c1,inconclusive: 31.7%

# Reformatted bar-delimited: two of the compounds above.
row | Compound | inhibition
17 | COC(=O)c1ccc(OC(=O)CCS(=O)(=O)c2ccc(C)cc2)cc1 | inactive: -1.96%
18 | COc1cc(C(=O)N2CCN(C/C=C/c3ccccc3)CC2)cc(OC)c1OC | inconclusive: 33.5%

# Following part.

row,Compound,inhibition
1,CCc1c(C)n([O-])c2c([n+]1=O)CCC2,active: 46.1%
2,CN(C)c1ccc(/C=N/NC(=O)CCc2c[nH]c3ccccc23)cc1,inconclusive: 34.2%
3,CN(C)S(=O)(=O)c1ccc(Cl)c(NC(=O)CSc2nnnn2-c2ccc(O)cc2)c1,active: 41.2%
4,COc1cc(OC)cc(C(=O)OC/C(O)=C(\C#N)c2nc3ccccc3[nH]2)c1,inactive: -2.56%
5,O=C(CCl)c1cc2c3c(c1)CC(=O)N3CCC2,inconclusive: 36.7%
6,CC1(C(=O)N2CCCCC2)CCN1C(=O)Cc1ccc(-c2ccccc2)cc1 (stereo not drawn),inconclusive: 102%
7,CN1C(=O)NC(c2ccccc2)C2=C1CN(c1cccc(C(F)(F)F)c1)C2=O (stereo not drawn),active: 30.6%
8,COc1ccc(-c2coc3c(C)c4oc(=O)c(CCC(=O)O)c(C)c4cc23)cc1,active: 51.8%
9,CCCCC(=O)OC1CCC2C3CCc4cc(O)ccc4C3CCC12C (stereo not drawn),active: 70.9%
10,O=C(CN1C(=O)NC(c2ccccc2)(c2ccccc2)C1=O)Nc1ccc2[nH]c(=O)[nH]c2c1,inactive: 2.76%
11,Cc1ccc2c(c1)c1c3n2CCN(C(=O)CCl)C3CCC1 (stereo not drawn),active: 58.7%
12,CCCN(CCC)S(=O)(=O)c1ccc(C(=O)Nc2nnc(COC)o2)cc1,inconclusive: 36.7%
13,COc1ccc(S(=O)(=O)NC(C)C(=O)Nc2ccccc2F)cc1 (stereo not drawn),inconclusive: 35.4%
14,O=C1CCC(=O)N1c1nc2nc(-c3ccccc3)cc(-c3ccccc3)n2n1,active: 33.3%
15,CCOc1ncccc1C(=O)OCC(=O)Nc1ccc(C(C)C)cc1,inconclusive: 38.5%
16,COc1ccc(CNC(=O)c2ccc(CS(=O)Cc3cccc(Cl)c3)o2)cc1 (stereo not drawn),inconclusive: 55.6%
17,Cc1nnc(SC2CC(=O)N(c3ccccc3)C2=O)s1 (stereo not drawn),inconclusive: 34.5%
18,CCOc1ccc(NC(=O)CN(C)C(=O)c2cc(C)nc3ccccc23)cc1OCC,inconclusive: 31.7%
19,Cc1ccc(N2CC(C(=O)N3CCCCCC3)CC2=O)cc1 (stereo not drawn),inconclusive: 45.9%
20,C=CC[n+]1c(-c2ccc(C)cc2)csc1Nc1c(C)n(C)n(-c2ccccc2)c1=O,inactive: -1.15%

row,Compound,inhibition
1,COc1ccnc(N=CNOCc2ccc(F)cc2Cl)c1C#N,inconclusive: 39.6%
2,O=C(O)CCc1ccc(-c2cccs2)n1NC(=O)c1ccco1,inconclusive: 33.6%
3,CC12CCC3c4ccc(O)cc4CCC3C1CCC2=O (stereo not drawn),active: 45.3%
4,COC1=C(Br)C(=O)c2ncccc2C1=O,active: 47.1%
5,CCCCNC(=O)Nc1ccon1,inconclusive: 36.9%
6,COc1cc(/C=C/C(=O)c2ccc(O)cc2)ccc1OCC#N,inconclusive: 30.4%
7,COc1cc(C2C(C(C)=O)=C(O)C(=O)N2CCc2c[nH]c3ccccc23)ccc1O (stereo not drawn),active: 41.5%
8,COc1cc(N(C)C)ccc1C=c1c2ccccc2n2c1cc(-c1ccccc1)[n+]2C,inconclusive: 40.2%
9,CN(C)C(=O)CSc1n[nH]c(-c2ccco2)n1,inconclusive: 40.8%
10,C=CC[C@@H](CC(=O)NCCO)C(=O)N[C@H](COC(=O)[C@@H](CC=C)Cc1ccc(F)cc1)Cc1c[nH]c2ccccc12,inconclusive: 33.6%
11,Cc1[nH]c2ccc(Br)cc2c(=O)c1CN1CCCCCC1,inactive: 1.52%
12,COc1ccccc1S(=O)(=O)N(C)C[C@@H]1Oc2cc(C#CCC(C)C)ccc2S(=O)(=O)N([C@H](C)CO)C[C@@H]1C,inactive: -0.895%
13,CCCCn1c(SCC(=O)NC2CCS(=O)(=O)C2)nc2ccccc2c1=O (stereo not drawn),inconclusive: 34.8%
14,O=C(N/N=C/c1cccc([N+](=O)[O-])c1)c1cnccn1,inconclusive: 40.3%
15,CCC(=O)N1CCc2cc(S(=O)(=O)CCC(=O)NCc3ccco3)ccc21,inconclusive: 37.7%
16,CC(=O)c1ccc(S(=O)(=O)Nc2cccc(S(=O)(=O)NC3=NCCC3)c2)cc1,inactive: 8.69%
17,O=C(Cc1ccc(Cl)cc1)NC(=S)Nc1ccccc1N1CCOCC1,inactive: -13.2%
18,CCOC(=O)c1ccc2nc(C)c(CC)c(Cl)c2c1,inactive: 3.75%
